From the supplement of paper PMC10060354, “Discovery of a small molecule ligand of FRS2 that inhibits invasion and tumor growth” (Cellular Oncology, 2022) come the findings set out here.

Amino acid sequences for entries named in this document (tags omitted). A change or cut given only in a name is not applied to a line headed by its entry.
UniProt Q9NUQ9: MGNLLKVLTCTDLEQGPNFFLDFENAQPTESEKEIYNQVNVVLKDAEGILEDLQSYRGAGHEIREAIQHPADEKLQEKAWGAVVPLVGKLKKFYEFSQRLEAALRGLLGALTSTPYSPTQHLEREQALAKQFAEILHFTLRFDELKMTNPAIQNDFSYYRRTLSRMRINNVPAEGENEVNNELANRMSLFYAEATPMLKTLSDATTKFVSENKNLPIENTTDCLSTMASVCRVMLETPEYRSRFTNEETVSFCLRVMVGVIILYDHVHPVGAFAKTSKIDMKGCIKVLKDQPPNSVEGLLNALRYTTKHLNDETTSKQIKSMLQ
UniProt Q9NWS0, whole entry: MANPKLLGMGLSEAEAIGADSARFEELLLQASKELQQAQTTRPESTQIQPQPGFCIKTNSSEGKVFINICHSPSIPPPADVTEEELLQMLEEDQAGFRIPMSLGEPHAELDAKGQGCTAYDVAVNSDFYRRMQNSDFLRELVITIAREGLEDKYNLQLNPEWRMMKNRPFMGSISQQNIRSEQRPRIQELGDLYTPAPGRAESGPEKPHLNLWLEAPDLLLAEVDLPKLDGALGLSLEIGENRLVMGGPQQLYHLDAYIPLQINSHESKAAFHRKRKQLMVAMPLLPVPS
UniProt Q96FW1, whole entry: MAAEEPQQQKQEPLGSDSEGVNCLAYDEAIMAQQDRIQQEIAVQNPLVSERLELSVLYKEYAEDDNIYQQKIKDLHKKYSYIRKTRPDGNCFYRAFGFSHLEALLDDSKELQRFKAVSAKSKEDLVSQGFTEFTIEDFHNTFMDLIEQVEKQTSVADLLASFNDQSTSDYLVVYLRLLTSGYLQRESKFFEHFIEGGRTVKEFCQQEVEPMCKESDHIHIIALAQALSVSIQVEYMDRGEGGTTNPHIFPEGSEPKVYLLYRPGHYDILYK
UniProt Q9HAV4: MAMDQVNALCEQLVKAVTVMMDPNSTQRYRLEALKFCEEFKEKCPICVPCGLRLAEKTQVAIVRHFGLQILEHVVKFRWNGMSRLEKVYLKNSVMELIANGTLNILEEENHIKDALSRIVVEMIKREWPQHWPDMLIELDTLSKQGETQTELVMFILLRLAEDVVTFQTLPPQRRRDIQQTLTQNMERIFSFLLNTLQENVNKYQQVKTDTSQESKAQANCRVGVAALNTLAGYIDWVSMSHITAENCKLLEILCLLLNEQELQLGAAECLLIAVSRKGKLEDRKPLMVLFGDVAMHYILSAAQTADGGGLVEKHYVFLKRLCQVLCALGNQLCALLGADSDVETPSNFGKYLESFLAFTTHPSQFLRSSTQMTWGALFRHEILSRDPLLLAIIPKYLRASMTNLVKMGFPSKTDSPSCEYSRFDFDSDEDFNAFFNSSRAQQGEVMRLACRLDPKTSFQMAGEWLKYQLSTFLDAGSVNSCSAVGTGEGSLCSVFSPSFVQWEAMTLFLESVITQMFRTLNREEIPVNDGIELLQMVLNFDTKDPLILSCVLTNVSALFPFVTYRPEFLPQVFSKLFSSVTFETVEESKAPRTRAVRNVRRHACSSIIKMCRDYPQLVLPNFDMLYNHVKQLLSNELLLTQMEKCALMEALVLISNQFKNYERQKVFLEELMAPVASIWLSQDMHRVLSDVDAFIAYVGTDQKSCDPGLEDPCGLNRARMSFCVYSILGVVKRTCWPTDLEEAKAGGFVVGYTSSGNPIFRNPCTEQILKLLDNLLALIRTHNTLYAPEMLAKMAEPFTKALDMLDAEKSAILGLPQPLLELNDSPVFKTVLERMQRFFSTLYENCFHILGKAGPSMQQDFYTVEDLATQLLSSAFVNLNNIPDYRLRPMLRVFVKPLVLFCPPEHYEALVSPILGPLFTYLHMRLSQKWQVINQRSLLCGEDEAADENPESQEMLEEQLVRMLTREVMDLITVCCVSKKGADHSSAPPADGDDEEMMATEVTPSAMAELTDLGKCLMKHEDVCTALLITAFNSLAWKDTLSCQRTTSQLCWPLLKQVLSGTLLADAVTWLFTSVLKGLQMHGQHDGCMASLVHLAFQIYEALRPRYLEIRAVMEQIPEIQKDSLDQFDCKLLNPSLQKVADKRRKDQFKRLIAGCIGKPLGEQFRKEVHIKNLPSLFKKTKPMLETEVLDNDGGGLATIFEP
UniProt Q96E39: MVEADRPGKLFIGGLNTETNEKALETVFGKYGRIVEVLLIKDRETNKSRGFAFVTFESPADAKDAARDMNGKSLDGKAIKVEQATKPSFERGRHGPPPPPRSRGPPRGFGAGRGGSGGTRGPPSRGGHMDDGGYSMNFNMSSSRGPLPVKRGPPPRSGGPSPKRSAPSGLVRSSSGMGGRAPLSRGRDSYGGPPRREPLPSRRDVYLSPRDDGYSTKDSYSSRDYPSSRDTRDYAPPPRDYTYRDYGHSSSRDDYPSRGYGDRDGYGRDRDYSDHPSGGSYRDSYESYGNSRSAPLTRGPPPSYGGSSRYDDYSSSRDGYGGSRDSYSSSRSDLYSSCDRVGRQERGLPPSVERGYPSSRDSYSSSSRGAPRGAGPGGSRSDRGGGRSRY
UniProt A8MUU1, whole entry: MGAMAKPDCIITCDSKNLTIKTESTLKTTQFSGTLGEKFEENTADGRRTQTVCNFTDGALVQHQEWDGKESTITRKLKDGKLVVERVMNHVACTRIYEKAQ
UniProt Q9H467: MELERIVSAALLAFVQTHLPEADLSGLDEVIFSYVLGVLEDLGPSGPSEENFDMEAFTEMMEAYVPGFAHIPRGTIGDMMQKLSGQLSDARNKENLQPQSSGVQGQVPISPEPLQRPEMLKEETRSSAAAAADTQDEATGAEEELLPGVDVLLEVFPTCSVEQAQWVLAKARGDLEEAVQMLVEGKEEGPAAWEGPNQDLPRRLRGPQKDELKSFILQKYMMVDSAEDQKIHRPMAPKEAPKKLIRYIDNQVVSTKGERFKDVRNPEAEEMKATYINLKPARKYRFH
UniProt Q9UKI8: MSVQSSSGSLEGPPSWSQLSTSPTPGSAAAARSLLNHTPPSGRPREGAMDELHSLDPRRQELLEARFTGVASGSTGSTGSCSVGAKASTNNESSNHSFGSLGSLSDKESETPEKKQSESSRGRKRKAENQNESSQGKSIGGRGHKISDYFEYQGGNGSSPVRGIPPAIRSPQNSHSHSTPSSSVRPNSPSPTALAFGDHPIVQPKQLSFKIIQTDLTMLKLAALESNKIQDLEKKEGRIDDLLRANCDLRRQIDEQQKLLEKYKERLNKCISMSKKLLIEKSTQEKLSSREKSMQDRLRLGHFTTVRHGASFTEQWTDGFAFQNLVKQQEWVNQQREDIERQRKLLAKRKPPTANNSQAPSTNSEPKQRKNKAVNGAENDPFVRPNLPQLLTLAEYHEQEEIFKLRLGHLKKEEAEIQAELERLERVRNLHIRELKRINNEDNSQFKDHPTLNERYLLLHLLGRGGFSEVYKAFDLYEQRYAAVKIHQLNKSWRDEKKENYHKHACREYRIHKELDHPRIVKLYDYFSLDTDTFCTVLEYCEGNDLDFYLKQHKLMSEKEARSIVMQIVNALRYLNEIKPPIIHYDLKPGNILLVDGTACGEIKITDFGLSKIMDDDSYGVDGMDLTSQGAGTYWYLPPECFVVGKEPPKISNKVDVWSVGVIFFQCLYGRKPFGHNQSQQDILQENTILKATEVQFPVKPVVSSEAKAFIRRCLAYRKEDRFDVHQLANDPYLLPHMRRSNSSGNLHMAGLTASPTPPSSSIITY
UniProt P52294, whole entry: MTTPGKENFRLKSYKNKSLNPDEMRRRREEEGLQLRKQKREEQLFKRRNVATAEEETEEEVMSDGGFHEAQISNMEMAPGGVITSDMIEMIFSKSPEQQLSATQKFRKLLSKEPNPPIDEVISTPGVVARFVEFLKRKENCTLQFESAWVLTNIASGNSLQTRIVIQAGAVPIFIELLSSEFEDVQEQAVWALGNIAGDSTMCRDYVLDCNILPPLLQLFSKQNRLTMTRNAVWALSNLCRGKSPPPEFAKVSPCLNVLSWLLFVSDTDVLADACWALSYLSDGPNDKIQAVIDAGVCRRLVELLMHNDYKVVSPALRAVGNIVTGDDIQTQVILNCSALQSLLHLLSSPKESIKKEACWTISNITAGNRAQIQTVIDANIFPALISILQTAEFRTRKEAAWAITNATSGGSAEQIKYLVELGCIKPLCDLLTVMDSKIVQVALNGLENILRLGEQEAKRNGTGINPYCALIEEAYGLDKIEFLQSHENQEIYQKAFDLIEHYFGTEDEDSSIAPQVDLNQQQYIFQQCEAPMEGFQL
UniProt Q9C0H2: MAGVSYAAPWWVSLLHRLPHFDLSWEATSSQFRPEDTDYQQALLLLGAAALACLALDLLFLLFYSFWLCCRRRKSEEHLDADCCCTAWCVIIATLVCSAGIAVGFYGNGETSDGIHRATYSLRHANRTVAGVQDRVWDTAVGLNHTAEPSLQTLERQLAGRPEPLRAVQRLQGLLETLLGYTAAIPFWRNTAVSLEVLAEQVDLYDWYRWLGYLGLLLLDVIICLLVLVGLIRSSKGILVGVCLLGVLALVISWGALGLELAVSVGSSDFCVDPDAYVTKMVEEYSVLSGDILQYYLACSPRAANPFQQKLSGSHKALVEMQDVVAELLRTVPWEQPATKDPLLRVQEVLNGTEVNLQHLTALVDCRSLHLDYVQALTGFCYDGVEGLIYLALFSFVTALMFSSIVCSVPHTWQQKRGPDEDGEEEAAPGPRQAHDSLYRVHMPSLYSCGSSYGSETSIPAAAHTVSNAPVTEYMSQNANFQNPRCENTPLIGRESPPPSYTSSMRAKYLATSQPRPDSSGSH
UniProt P13804: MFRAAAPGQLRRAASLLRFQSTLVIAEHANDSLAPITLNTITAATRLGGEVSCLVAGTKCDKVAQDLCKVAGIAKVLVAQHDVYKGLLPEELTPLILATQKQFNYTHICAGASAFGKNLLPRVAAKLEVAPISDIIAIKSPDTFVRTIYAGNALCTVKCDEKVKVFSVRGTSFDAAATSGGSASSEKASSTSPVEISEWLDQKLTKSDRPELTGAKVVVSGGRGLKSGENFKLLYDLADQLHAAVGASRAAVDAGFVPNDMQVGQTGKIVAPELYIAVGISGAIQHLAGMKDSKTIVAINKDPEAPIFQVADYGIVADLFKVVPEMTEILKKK
UniProt P05067, whole entry: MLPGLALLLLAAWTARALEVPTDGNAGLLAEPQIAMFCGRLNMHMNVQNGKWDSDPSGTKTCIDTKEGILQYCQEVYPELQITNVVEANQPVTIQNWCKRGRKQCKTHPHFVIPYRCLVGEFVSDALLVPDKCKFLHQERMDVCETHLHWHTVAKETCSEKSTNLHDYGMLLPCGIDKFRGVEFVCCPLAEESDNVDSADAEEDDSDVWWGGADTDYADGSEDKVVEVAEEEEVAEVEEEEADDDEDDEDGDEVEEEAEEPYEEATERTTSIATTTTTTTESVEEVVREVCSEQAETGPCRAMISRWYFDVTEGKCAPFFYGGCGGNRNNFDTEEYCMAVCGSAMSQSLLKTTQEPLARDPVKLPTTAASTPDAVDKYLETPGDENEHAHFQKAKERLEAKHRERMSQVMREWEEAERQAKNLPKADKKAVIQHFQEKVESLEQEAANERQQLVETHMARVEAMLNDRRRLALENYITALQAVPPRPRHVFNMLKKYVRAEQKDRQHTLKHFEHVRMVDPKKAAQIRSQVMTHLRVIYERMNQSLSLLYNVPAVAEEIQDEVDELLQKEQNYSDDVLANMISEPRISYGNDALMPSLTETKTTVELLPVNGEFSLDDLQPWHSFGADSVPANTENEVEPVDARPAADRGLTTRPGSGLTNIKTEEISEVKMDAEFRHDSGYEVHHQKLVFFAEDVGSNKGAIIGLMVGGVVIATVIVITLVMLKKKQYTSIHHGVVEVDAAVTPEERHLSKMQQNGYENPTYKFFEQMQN
UniProt O60890: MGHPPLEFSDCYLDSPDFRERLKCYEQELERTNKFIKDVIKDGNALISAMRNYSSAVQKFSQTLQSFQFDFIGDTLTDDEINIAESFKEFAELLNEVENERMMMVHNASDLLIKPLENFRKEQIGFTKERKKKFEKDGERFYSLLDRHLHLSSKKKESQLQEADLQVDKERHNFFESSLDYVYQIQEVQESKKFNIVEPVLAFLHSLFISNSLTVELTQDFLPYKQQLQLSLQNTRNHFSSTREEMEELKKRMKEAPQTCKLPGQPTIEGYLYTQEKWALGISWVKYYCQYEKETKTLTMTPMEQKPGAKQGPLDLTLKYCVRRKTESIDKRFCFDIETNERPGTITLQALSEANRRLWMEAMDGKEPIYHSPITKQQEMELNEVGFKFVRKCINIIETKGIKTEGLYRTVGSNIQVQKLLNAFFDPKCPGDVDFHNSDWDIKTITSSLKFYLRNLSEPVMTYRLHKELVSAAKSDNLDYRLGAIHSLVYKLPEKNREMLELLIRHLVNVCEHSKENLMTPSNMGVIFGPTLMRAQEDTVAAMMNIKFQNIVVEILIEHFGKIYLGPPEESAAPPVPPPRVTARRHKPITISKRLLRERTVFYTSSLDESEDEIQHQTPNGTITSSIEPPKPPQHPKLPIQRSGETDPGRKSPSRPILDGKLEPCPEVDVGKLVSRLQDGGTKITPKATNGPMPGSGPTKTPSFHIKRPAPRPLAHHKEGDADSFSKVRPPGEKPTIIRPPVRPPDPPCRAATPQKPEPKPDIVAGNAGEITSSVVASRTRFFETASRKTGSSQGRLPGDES

Compound in the experiment: [O-][N+](C(C1=C(C(O)=C2)NC(C(C=C3)=CC=C3Cl)C4C1C=CC4)=C2Cl)=O
As to the kind of experiment: melting temperature shift (compound 7 minus DMSO); higher = compound stabilises the protein. The settings on record: 10 µM. As to the method:
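Thermal proteome profiling (TMT mass spectrometry) in intact DAOY medulloblastoma cells or DAOY lysates treated with 10 µM compound 7 or DMSO, heated at 10 temperatures from 40.5 to 73.8 °C for 3 min. Melting curves were fitted with the Bioconductor TPP package, and the melting point difference between compound and vehicle is reported per protein (single curve per condition).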

Where [1] appears, read: system: DAOY cell lysate, treatment time: 20 min, 4 °C.
Where [2] appears, read: system: intact DAOY cells, treatment time: 90 min, 37 °C.

Many values rest on one well or one pass, so single values are uncertain.

With CTSD (UniProt P07339), the melting temperature shift under setting [1] turned out to be 0.437 °C and the melting temperature shift under setting [2] was found to be 0.416 °C.
For FAM49B (UniProt Q9NUQ9), in that order: -0.55 °C and -0.626 °C.
On the same counts, the results for PIH1D1 (UniProt Q9NWS0) are -0.675 °C and 0.903 °C.
On to MRPL57 (UniProt Q9BQC6), for which the melting temperature shift under setting [2] is -1.9 °C.
For CCDC22 (UniProt O60826), the melting temperature shift runs as follows: under setting [1], 0.0263 °C; under setting [2], -0.52 °C.
For IQGAP3 (UniProt Q86VI3), in that order: -0.777 °C and -0.0404 °C.
On the same counts, the results for ECD (UniProt O95905) are -0.867 °C and 0.0654 °C.
For UniProt Q9NZU5, in that order: -0.0503 °C and 0.58 °C.
Take TMEM70 (UniProt Q9BUB7): the melting temperature shift was 1.25 °C under setting [1] and -1.66 °C under setting [2].
For UniProt P17540, the melting temperature shift under setting [2] was determined as 1.91 °C.
On to OTUB1 (UniProt Q96FW1), for which the melting temperature shift is -0.751 °C under setting [1] and -0.0029 °C under setting [2].
Take UniProt Q86UP3: the melting temperature shift under setting [1] was -0.805 °C.
With ECSIT (UniProt Q9BQ95), the melting temperature shift stood at 0.466 °C under setting [1] and 0.423 °C under setting [2].
Regarding TNFAIP2 (UniProt Q03169), under setting [1], the melting temperature shift was -0.209 °C.
For NT5C2 (UniProt P49902), the melting temperature shift was -1.29 °C under setting [1] and 0.0666 °C under setting [2].
On the same counts, the results for CFL2 (UniProt Q9Y281) are -0.697 °C and 2.28 °C.
Regarding APOOL (UniProt Q6UXV4), under setting [1], the melting temperature shift turned out to be 0.375 °C.
As for UniProt Q08043, the melting temperature shift under setting [2] was -0.2 °C.
ZDHHC17 (UniProt Q8IUH5): the melting temperature shift came out at 0.559 °C under setting [1] and 1.95 °C under setting [2].
On the same counts, the results for MPST (UniProt P25325) are 0.00511 °C and 2.05 °C.
On the same counts, the results for UMPS (UniProt P11172) are -0.141 °C and 0.0194 °C.
For UniProt Q96RT6, the melting temperature shift under setting [2] is -0.113 °C.
On to PRIM1 (UniProt P49642), for which the melting temperature shift under setting [1] is -0.986 °C and the melting temperature shift under setting [2] is 0.613 °C.
For UniProt Q9UL01, the melting temperature shift under setting [1] is 1.42 °C.
On to MRPL2 (UniProt Q5T653), for which the melting temperature shift reads like this: under setting [1], 3.85 °C; under setting [2], -1.31 °C.
Turning to PSMB6 (UniProt P28072), the melting temperature shift reads like this: under setting [1], -0.09 °C; under setting [2], 1.34 °C.
With SORT1 (UniProt Q99523), the melting temperature shift under setting [1] is 1.09 °C.
For CAB39 (UniProt Q9Y376), the melting temperature shift under setting [1] is -1.26 °C and the melting temperature shift under setting [2] was -0.981 °C.
For UniProt Q969Q0, in that order: 0.125 °C and -1.35 °C.
As for HDDC3 (UniProt Q8N4P3), the melting temperature shift under setting [2] was found to be 1.67 °C.
As for RB1 (UniProt P06400), the melting temperature shift is -1.43 °C under setting [1] and -0.93 °C under setting [2].
For MED24 (UniProt O75448), in that order: -1.29 °C and -2.37 °C.
Take ACTR10 (UniProt Q9NZ32): the melting temperature shift under setting [1] is -0.202 °C and the melting temperature shift under setting [2] is 0.267 °C.
On the same counts, the results for XPO5 (UniProt Q9HAV4) are -0.425 °C and -1.61 °C.
On the same counts, the results for COPB1 (UniProt P53618) are -0.572 °C and -0.0444 °C.
With C1ORF198 (UniProt Q9H425), the melting temperature shift under setting [2] was 1.12 °C.
On to CSNK2B (UniProt P67870), for which the melting temperature shift was -0.172 °C under setting [1] and -0.663 °C under setting [2].
On the same counts, the results for FRYL (UniProt O94915) are -1.13 °C and -0.132 °C.
On the same counts, the results for SRSF9 (UniProt Q13242) are 0.437 °C and 0.0904 °C.
Turning to ZSWIM8 (UniProt A7E2V4), the melting temperature shift under setting [1] was 1.9 °C.
With ZMIZ2 (UniProt Q8NF64), the melting temperature shift by setting is: under setting [1], -3.31 °C; under setting [2], 1.87 °C.
PDIA5 (UniProt Q14554): the melting temperature shift by setting is: under setting [1], 0.701 °C; under setting [2], -0.929 °C.
On the same counts, the results for UniProt Q96E39 are 2.05 °C and 1.38 °C.
Regarding UniProt Q9C0K3, under setting [2], the melting temperature shift was 0.0809 °C.
The same measure, in the same setting: in the case of TOM1 (UniProt O60784) it was -0.00825 °C.
Turning to DDX50 (UniProt Q9BQ39), the melting temperature shift worked out at 0.708 °C under setting [1] and 2.04 °C under setting [2].
Turning to UniProt Q8NHY2, under setting [1], the melting temperature shift is -1.4 °C.
With UniProt Q68CJ9, the melting temperature shift under setting [2] was -0.343 °C.
Same read-out and setting: in the case of UniProt A8MUU1 it was -4.9 °C.
Same read-out and setting: as for UniProt Q86YR5, the figure is 0.43 °C.
On to ARFIP2 (UniProt P53365), for which the melting temperature shift under setting [1] is -0.979 °C and the melting temperature shift under setting [2] is -0.62 °C.
Regarding CUEDC2 (UniProt Q9H467), under setting [1], the melting temperature shift came to 8.48 °C.
Take TLK1 (UniProt Q9UKI8): the melting temperature shift under setting [2] was -0.642 °C.
For the target KPNA1 (UniProt P52294), the melting temperature shift under setting [1] is 0.407 °C and the melting temperature shift under setting [2] was -0.341 °C.
Take UniProt Q53HI1: the melting temperature shift under setting [2] came out at 0.176 °C.
Take SLC25A20 (UniProt O43772): the melting temperature shift is 2.57 °C under setting [1] and -2.31 °C under setting [2].
For NMI (UniProt Q13287), in that order: -1.9 °C and 5.21 °C.
On the same counts, the results for GINS2 (UniProt Q9Y248) are -0.378 °C and -0.39 °C.
For UniProt Q96PZ2, in that order: 3.4 °C and 0.325 °C.
Consider SAE1 (UniProt Q9UBE0), for which the melting temperature shift was -0.213 °C under setting [1] and 0.29 °C under setting [2].
Turning to UniProt O95057, the melting temperature shift under setting [2] was -2.84 °C.
As for UniProt Q76FK4, the melting temperature shift under setting [1] came out at 0.821 °C.
Still for that read-out and setting: in the case of TTYH3 (UniProt Q9C0H2) it was 0.279 °C.
On the same count and under the same terms, as for TMEM87A (UniProt Q8NBN3), the figure is 0.0692 °C.
Consider SNRPA1 (UniProt P09661), for which the melting temperature shift amounted to 0.133 °C under setting [1] and 0.269 °C under setting [2].
For MRPS33 (UniProt Q9Y291), in that order: 0.388 °C and 0.271 °C.
On the same counts, the results for WDFY1 (UniProt Q8IWB7) are 2.66 °C and 2.68 °C.
As to UniProt O00221, the melting temperature shift under setting [1] came out at 1.24 °C.
As to RBM27 (UniProt Q9P2N5), the melting temperature shift was -0.162 °C under setting [1] and -0.911 °C under setting [2].
With UniProt P17677, the melting temperature shift under setting [1] is -10.8 °C.
As to UniProt Q96FN4, the melting temperature shift under setting [1] was found to be 0.901 °C.
Take HDAC1 (UniProt Q13547): the melting temperature shift runs as follows: under setting [1], 1.15 °C; under setting [2], -0.649 °C.
Turning to C8ORF33 (UniProt Q9H7E9), the melting temperature shift runs as follows: under setting [1], -1.19 °C; under setting [2], -0.158 °C.
For SYNRG (UniProt Q9UMZ2), in that order: -1.04 °C and 2.11 °C.
TRAF6 (UniProt Q9Y4K3): under setting [2], the melting temperature shift worked out at 0.96 °C.
LETMD1 (UniProt Q6P1Q0): the melting temperature shift was -0.0359 °C under setting [1] and 1.94 °C under setting [2].
On the same counts, the results for ETFA (UniProt P13804) are 0.411 °C and 0.296 °C.
For ZC3H15 (UniProt Q8WU90), in that order: 0.205 °C and -0.256 °C.
Consider APP (UniProt P05067), for which the melting temperature shift under setting [1] is 0.288 °C.
In the case of PCNT (UniProt O95613), the melting temperature shift runs as follows: under setting [1], -1.57 °C; under setting [2], -1.3 °C.
On the same counts, the results for UBTF (UniProt P17480) are 0.998 °C and 0.94 °C.
On to UniProt O00522, for which the melting temperature shift under setting [1] was -1.23 °C.
On to ELOVL5 (UniProt Q9NYP7), for which the melting temperature shift under setting [1] worked out at 0.233 °C and the melting temperature shift under setting [2] is -0.867 °C.
Turning to OPHN1 (UniProt O60890), the melting temperature shift under setting [1] came out at 0.299 °C.
On to ERP29 (UniProt P30040), for which the melting temperature shift under setting [1] came out at 0.593 °C and the melting temperature shift under setting [2] was determined as 0.209 °C.
For SAP18 (UniProt O00422), in that order: -0.72 °C and 2.56 °C.
In the case of UniProt Q5VWX1, the melting temperature shift under setting [2] was 0.389 °C.
As for RBMS1 (UniProt P29558), the melting temperature shift reads like this: under setting [1], 0.591 °C; under setting [2], -0.138 °C.
Consider UniProt P04035, for which the melting temperature shift under setting [1] came to 2.15 °C.
MCAM (UniProt P43121): the melting temperature shift under setting [1] came out at 2.48 °C.
For the target SMAD2 (UniProt Q15796), the melting temperature shift under setting [1] amounted to 1.66 °C and the melting temperature shift under setting [2] is 0.443 °C.
On the same counts, the results for PROSC (UniProt O94903) are 0.33 °C and -0.571 °C.
DRAP1 (UniProt Q14919): the melting temperature shift under setting [1] is 1.38 °C.
